The supplement of paper PMC3353916

Test system: Sindbis virus TE/5'2J-GFP
Assay: percent infected (GFP+ in RFP+ ISG-expressing cells); higher = more infection (less antiviral activity)
Conditions: experiment: primary screen (single well)

| Sequence | percent infected (BHK/HA-Zeo (control)) [%] | percent infected (BHK/NZAP-Zeo (ZAP)) [%] |
| --- | --- | --- |
| MELRSYQWEVIMPALEGKNIIIWLPTGAGKTRAAAYVAKRHLETVDGAKVVVLVNRVHLVTQHGEEFRRMLDGRWTVTTLSGDMGPRAGFGHLARCHDLLICTAELLQMALTSPEEEEHVELTVFSLIVVDECHHTHKDTVYNVIMSQYLELKLQRAQPLPQVLGLTASPGTGGASKLDGAINHVLQLCANLDTWCIMSPQNCCPQLQEHSQQPCKQYNLCHRRSQDPFGDLLKKLMDQIHDHLEMPELSRKFGTQMYEQQVVKLSEAAALAGLQEQRVYALHLRRYNDALLIHDTVRAVDALAALQDFYHREHVTKTQILCAERRLLALFDDRKNELAHLATHGPENPKLEMLEKILQRQFSSSNSPRGIIFTRTRQSAHSLLLWLQQQQGLQTVDIRAQLLIGAGNSSQSTHMTQRDQQEVIQKFQDGTLNLLVATSVAEEGLDIPHCNVVVRYGLLTNEISMVQARGRARADQSVYAFVATEGSRELKRELINEALETLMEQAVAAVQKMDQAEYQAKIRDLQQAALTKRAAQAAQRENQRQQFPVEHVQLLCINCMVAVGHGSDLRKVEGTHHVNVNPNFSNYYNVSRDPVVINKVFKDWKPGGVISCRNCGEVWGLQMIYKSVKLPVLKVRSMLLETPQGRIQAKKWSRVPFSVPDFDFLQHCAENLSDLSLD [DHX58] | 96.4 | 86.2 |
| MENFILYEEIGRGSKTVVYKGRRKGTINFVAILCTDKCKRPEITNWVRLTREIKHKNIVTFHEWYETSNHLWLVVELCTGGSLKTVIAQDENLPEDVVREFGIDLISGLHHLHKLGILFCDISPRKILLEGPGTLKFSNFCLAKVEGENLEEFFALVAAEEGGGDNGENVLKKSMKSRVKGSPVYTAPEVVRGADFSISSDLWSLGCLLYEMFSGKPPFFSESISELTEKILCEDPLPPIPKDSSRPKASSDFINLLDGLLQRDPQKRLTWTRLLQHSFWKKAFAGADQESSVEDLSLSRNTMECSGPQDSKELLQNSQSRQAKGHKSGQPLGHSFRLENPTEFRPKSTLEGQLNESMFLLSSRPTPRTSTAVEVSPGEDMTHCSPQKTSPLTKITSGHLSQQDLESQMRELIYTDSDLVVTPIIDNPKIMKQPPVKFDAKILHLPTYSVDKLLFLKDQDWNDFLQQVCSQIDSTEKSMGASRAKLNLLCYLCVVAGHQEVATRLLHSPLFQLLIQHLRIAPNWDIRAKVAHVIGLLASHTAELQENTPVVEAIVLLTELIRENFRNSKLKQCLLPTLGELIYLVATQEEKKKNPRECWAVPLAAYTVLMRCLREGEERVVNHMAAKIIENVCTTFSAQSQGFITGEIGPILWYLFRHSTADSLRITAVSALCRITRHSPTAFQNVIEKVGLNSVINSLASAICKVQQYMLTLFAAMLSCGIHLQRLIQEKGFVSTIIRLLDSPSTCIRAKAFLVLLYILIYNREMLLLSCQARLVMYIERDSRKTTPGKEQQSGNEYLSKCLDLLICHIVQELPRILGDILNSLANVSGRKHPSTVQVKQLKLCLPLMPVVLHLVTSQVFRPQVVTEEFLFSYGTILSHIKSVDSGETNIDGAIGLTASEEFIKITLSAFEAIIQYPILLKDYRSTVVDYILPPLVSLVQSQNVEWRLFSLRLLSETTSLLVNQEFGDGKEKASVDSDSNLLALIRDVLLPQYEHILLEPDPVPAYALKLLVAMTEHNPTFTRLVEESKLIPLIFEVTLEHQESILGNTMQSVIALLSNLVACKDSNMELLYEQGLVSHICNLLTETATLCLDVDNKNNNEMAAPLLFSLLDILHSMLTYTSGIVRLALQAQKSGSGEDPQAAEDLLLLNRPLTDLISLLIPLLPNEDPEIFDVSSKCLSILVQLYGGENPDSLSPENVEIFAHLLTSKEDPKEQKLLLRILRRMITSNEKHLESLKNAGSLLRALERLAPGSGSFADSAVAPLALEILQAVGH [ULK4] | 97.5 | 92.5 |

Single values of this set are uncertain.
